This passage reports binding results from publication PMC8001409.

Chains of the proteins cited; added tags and fusions are not shown.
UniProt P03372: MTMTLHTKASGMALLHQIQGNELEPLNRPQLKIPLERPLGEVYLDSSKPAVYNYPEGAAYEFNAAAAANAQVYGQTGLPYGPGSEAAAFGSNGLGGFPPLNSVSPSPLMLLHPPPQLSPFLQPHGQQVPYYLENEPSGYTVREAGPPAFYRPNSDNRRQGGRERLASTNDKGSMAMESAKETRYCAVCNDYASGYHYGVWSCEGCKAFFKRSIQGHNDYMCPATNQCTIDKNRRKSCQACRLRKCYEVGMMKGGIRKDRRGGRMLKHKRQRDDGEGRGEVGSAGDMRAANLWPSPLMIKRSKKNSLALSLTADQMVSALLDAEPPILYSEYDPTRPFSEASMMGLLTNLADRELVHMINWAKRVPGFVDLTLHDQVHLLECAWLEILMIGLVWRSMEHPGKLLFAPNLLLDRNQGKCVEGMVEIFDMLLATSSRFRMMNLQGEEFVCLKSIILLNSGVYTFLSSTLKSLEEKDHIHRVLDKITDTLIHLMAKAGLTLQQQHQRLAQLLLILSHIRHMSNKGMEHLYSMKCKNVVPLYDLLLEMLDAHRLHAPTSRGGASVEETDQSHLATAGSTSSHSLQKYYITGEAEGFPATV

This test addresses FLAG-ERα (estrogen receptor α) (UniProt P03372). As to the kind of experiment: co-IP; COS-1 cells co-transfected with FLAG- or 3xFLAG-ERα constructs and GFP-PARP7 constructs. Full-length ERα samples were treated with DMSO or E2 for 24 h; truncated variants were not treated with E2. Lysis in 200 mM NaCl, 20 mM Hepes, 1% Nonidet P-40. Anti-FLAG (M2) with Protein G Dynabeads, 2 h at 4 °C, five washes. Blotted with anti-GFP, anti-FLAG and anti-ADP-ribose.

No constants are given. Whether binding was seen depends on the method and setting. In cells and extracts the contact can be indirect. Some entries that bind do so weakly or less than the wild type. Tags and fused reporters may be left off the sequences shown.

B1: GFP-PARP7 (enzyme, UniProt Q7Z3E1 1-657)
chain: MEMETTEPEPDCVVQPPSPPDDFSCQMRLSEKITPLKTCFKKKDQKRLGTGTLRSLRPILNTLLESGSLDGVFRSRNQSTDENSLHEPMMKKAMEINSSCPPAENNMSVLIPDRTNVGDQIPEAHPSTEAPERVVPIQDHSFPSETLSGTVADSTPAHFQTDLLHPVSSDVPTSPDCLDKVIDYVPGIFQENSFTIQYILDTSDKLSTELFQDKSEEASLDLVFELVNQLQYHTHQENGIEICMDFLQGTCIYGRDCLKHHTVLPYHWQIKRTTTQKWQSVFNDSQEHLERFYCNPENDRMRMKYGGQEFWADLNAMNVYETTEFDQLRRLSTPPSSNVNSIYHTVWKFFCRDHFGWREYPESVIRLIEEANSRGLKEVRFMMWNNHYILHNSFFRREIKRRPLFRSCFILLPYLQTLGGVPTQAPPPLEATSSSQIICPDGVTSANFYPETWVYMHPSQDFIQVPVSAEDKSYRIIYNLFHKTVPEFKYRILQILRVQNQFLWEKYKRKKEYMNRKMFGRDRIINERHLFHGTSQDVVDGICKHNFDPRVCGKHATMFGQGSYFAKKASYSHNFSKKSSKGVHFMFLAKVLTGRYTMGSHGMRRPPPVNPGSVTSDLYDSCVDNFFEPQIFVIFNDDQSYPYFVIQYEEVSNTVSI
As for B1, the binding result is “binds”.

B2: GFP-PARP7 H532A (catalytically inactive mutant) (enzyme, UniProt Q7Z3E1 1-657)
chain: MEMETTEPEPDCVVQPPSPPDDFSCQMRLSEKITPLKTCFKKKDQKRLGTGTLRSLRPILNTLLESGSLDGVFRSRNQSTDENSLHEPMMKKAMEINSSCPPAENNMSVLIPDRTNVGDQIPEAHPSTEAPERVVPIQDHSFPSETLSGTVADSTPAHFQTDLLHPVSSDVPTSPDCLDKVIDYVPGIFQENSFTIQYILDTSDKLSTELFQDKSEEASLDLVFELVNQLQYHTHQENGIEICMDFLQGTCIYGRDCLKHHTVLPYHWQIKRTTTQKWQSVFNDSQEHLERFYCNPENDRMRMKYGGQEFWADLNAMNVYETTEFDQLRRLSTPPSSNVNSIYHTVWKFFCRDHFGWREYPESVIRLIEEANSRGLKEVRFMMWNNHYILHNSFFRREIKRRPLFRSCFILLPYLQTLGGVPTQAPPPLEATSSSQIICPDGVTSANFYPETWVYMHPSQDFIQVPVSAEDKSYRIIYNLFHKTVPEFKYRILQILRVQNQFLWEKYKRKKEYMNRKMFGRDRIINERHLFAGTSQDVVDGICKHNFDPRVCGKHATMFGQGSYFAKKASYSHNFSKKSSKGVHFMFLAKVLTGRYTMGSHGMRRPPPVNPGSVTSDLYDSCVDNFFEPQIFVIFNDDQSYPYFVIQYEEVSNTVSI
In the case of B2, the binding entry is on record as “binds”.
